These are yes or no findings as the source states them, for the method shown. Binding seen in cells or lysates may run through a third protein. Some entries that bind do so weakly or less than the wild type. Tags and fused reporters may be left off the sequences shown.
Target: T1, Flag-tagged retinoic acid-inducible gene I (RIG-I) (UniProt Q6Q899)
T1 sequence: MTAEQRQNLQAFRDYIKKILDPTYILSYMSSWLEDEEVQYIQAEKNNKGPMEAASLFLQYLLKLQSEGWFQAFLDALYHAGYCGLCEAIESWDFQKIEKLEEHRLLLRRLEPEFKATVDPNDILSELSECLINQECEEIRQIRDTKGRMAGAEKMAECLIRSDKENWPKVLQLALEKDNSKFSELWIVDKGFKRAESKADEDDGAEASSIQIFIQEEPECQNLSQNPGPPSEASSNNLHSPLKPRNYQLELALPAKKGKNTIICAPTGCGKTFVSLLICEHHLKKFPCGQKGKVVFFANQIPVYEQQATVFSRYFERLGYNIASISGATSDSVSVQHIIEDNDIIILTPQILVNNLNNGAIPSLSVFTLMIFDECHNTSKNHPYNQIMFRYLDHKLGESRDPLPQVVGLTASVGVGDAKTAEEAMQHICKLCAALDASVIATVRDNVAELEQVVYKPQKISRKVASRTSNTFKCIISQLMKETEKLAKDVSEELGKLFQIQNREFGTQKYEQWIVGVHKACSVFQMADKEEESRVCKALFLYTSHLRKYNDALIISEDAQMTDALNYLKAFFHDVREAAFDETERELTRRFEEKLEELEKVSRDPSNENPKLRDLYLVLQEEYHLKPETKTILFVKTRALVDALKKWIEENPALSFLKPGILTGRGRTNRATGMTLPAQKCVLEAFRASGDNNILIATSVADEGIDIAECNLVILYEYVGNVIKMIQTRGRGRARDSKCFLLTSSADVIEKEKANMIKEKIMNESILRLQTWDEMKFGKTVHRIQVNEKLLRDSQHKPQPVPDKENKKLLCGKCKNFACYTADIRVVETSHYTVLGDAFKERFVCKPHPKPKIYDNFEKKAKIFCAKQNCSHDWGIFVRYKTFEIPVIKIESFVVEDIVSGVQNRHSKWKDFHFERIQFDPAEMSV
Experiment: co-IP; HEK-293T cells co-transfected with pCAGGS-Flag-RIG-I and pCAGGS-Rnf19a, collected 48 h after transfection; lysate pre-cleared with IgG and protein A + G agarose, then incubated with DDDDK-Tag (anti-Flag) antibody and protein A + G agarose overnight at 4 °C; washed five times with PBS; immunoblot with anti-Flag and anti-Rnf19a antibodies

B1: ring finger protein 19A (Rnf19a) (enzyme, UniProt P50636 1-840)
chain: MQEQEISFIFKYNEGLCMNIDSDSILMSILDMSLHQQMGSDRDLQSSTSSVSLPSVKKAPKQRRISIGSLFRRKKDSKRKSRELNGGVDGIASIESIHSEMCADKNSIFSTNTSSDNGLTSISKQIGDFIECPLCLLRHSKDRFPDIMTCHHRSCVDCLRQYLRIEISESRVNISCPECTERFNPHDIRLILSDDVLMEKYEEFMLRRWLVADPDCRWCPAPDCGYAVIAFGCASCPKLTCGREGCGTEFCYHCKQIWHPNQTCDAARQERAQSLRLRTIRSSSISYSQESGAAADDIKPCPRCAAYIIKMNDGSCNHMTCAVCGCEFCWLCMKEISDLHYLSPSGCTFWGKKPWSRKKKILWQLGTLVGAPVGIALIAGIAIPAMIIGIPVYVGRKIHNRYEGKDVSKHKRNLAIAGGVTLSVIVSPVVAAVTVGIGVPIMLAYVYGVVPISLCRSGGCGVSAGNGKGVRIEFDDENDINVGGTNAAIDTTSVAEARHNPSIGEGSVGGLTGSLSASGSHMDRIGTIRDNLSETASTMALAGASITGSLSGSAMVNCFNRLEVQADVQKERCSLSGESGTVSLGTVSDNASTKAMAGSILNSYIPLDREGNSMEVQVDIESKPFKFRHNSGSSSVDDSGATRGHTGGASSGLPEGKSSATKWSKEATGGKKSKSGKLRKKGNMKINETREDMDAQLLEQQSTNSSEFEAPSLSDSMPSVADSHSSHFSEFSCSDLESMRTSCSHGSSDCHARFTAVNTLPEVENDRLENSPHQCSSALLSKAASCSDVPQPSHAADEHGTSRSGGKPMVDLCFGDALRETNNNHSHQTADLKVAVQTEI
  binding: binds

Reference: publication PMC10362728
